Results deposited as PubChem BioAssay AID686943 (Drosophila RNAi Screening Center, 2013)
Screen: 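Search across the genome for regulators of signalling from receptor tyrosine kinase to ERK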 (primary screen). Cell system: Drosophila S2R+ haemocyte-like cells expressing YFP-tagged ERK (Rolled). Reagent: long dsRNA against Drosophila genes. Conditions: insulin stimulation versus unstimulated cells; dose and duration not given. Read-out: 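Antibody staining for doubly phosphorylated ERK divided by ERK-YFP signal, as plate z-scores, in insulin-treated and untreated cells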. Scale: replicate 1, z-score of dpERK with insulin and replicate 2, z-score of dpERK with insulin: higher = more active ERK per ERK-YFP after insulin.
The deposit covers about 23,000 reagents; below is an unselected part of those with a known target gene and a result. 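Extra replicates exist only for a retested subset of genes; insulin dose and duration not given; both raised and lowered dpERK matter.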 Not all columns of the deposit are shown. Reagent sequences are not shown. The record does not give: the amount of reagent, the time to read-out.

What is on record for CR31032 [DRSC22457]?
replicate 1, z-score of dpERK with insulin: -0.3; replicate 2, z-score of dpERK with insulin: -0.08

How did the screen score Bdp1 [DRSC03192]?
replicate 1, z-score of dpERK with insulin: -1.33; replicate 2, z-score of dpERK with insulin: -0.03

For CG2961 [DRSC18246], what was measured?
replicate 1, z-score of dpERK with insulin: 0.41; replicate 2, z-score of dpERK with insulin: -0.05

What did the screen give for CG17147 [DRSC10249]?
replicate 1, z-score of dpERK with insulin: 0.18; replicate 2, z-score of dpERK with insulin: -0.26

With CG42613 [DRSC13332], how do the results read?
replicate 1, z-score of dpERK with insulin: 0.65; replicate 2, z-score of dpERK with insulin: 2.26

For CG42613 [DRSC14769], how do the results read?
replicate 1, z-score of dpERK with insulin: -1.68; replicate 2, z-score of dpERK with insulin: 0.95

What is on record for CG42613 [DRSC15802]?
replicate 1, z-score of dpERK with insulin: 0.44; replicate 2, z-score of dpERK with insulin: -0.85

With CG42613 [DRSC22613], what does the deposit list?
replicate 1, z-score of dpERK with insulin: 0.42; replicate 2, z-score of dpERK with insulin: 0.49

With Qsox4 [DRSC14224], what was measured?
replicate 1, z-score of dpERK with insulin: 0.38; replicate 2, z-score of dpERK with insulin: 0.29

With CG31342 [DRSC15349], what does the deposit list?
replicate 1, z-score of dpERK with insulin: -0.38; replicate 2, z-score of dpERK with insulin: -0.62

For CG31342 [DRSC16246], what was measured?
replicate 1, z-score of dpERK with insulin: 0.5; replicate 2, z-score of dpERK with insulin: -1.61

For eIF6 [DRSC04674], what was measured?
replicate 1, z-score of dpERK with insulin: 0.47; replicate 2, z-score of dpERK with insulin: 0.38

What did the screen give for CG33689 [DRSC09424]?
replicate 1, z-score of dpERK with insulin: -0.07; replicate 2, z-score of dpERK with insulin: -0.45

For CG31337 [DRSC12981], what does the deposit list?
replicate 1, z-score of dpERK with insulin: -0.17; replicate 2, z-score of dpERK with insulin: -0.34

For ImpE2 [DRSC08665], what does the deposit list?
replicate 1, z-score of dpERK with insulin: -0.32; replicate 2, z-score of dpERK with insulin: -0.84

For Nepl20 [DRSC14878], what does the deposit list?
replicate 1, z-score of dpERK with insulin: 0.15; replicate 2, z-score of dpERK with insulin: -0.14

What did the screen give for CG15395 [DRSC00409]?
replicate 1, z-score of dpERK with insulin: 0.03; replicate 2, z-score of dpERK with insulin: 0.66

With CG32192 [DRSC21760], what does the deposit list?
replicate 1, z-score of dpERK with insulin: 0.15; replicate 2, z-score of dpERK with insulin: -0.65

For obst-F [DRSC10805], what was measured?
replicate 1, z-score of dpERK with insulin: -0.23; replicate 2, z-score of dpERK with insulin: 0.29

For CG12438 [DRSC02167], what does the deposit list?
replicate 1, z-score of dpERK with insulin: -1.19; replicate 2, z-score of dpERK with insulin: -1.24

For RNaseZ [DRSC06845], how do the results read?
replicate 1, z-score of dpERK with insulin: -0.8; replicate 2, z-score of dpERK with insulin: 0.37

What did the screen give for Ugt36F1 [DRSC02601]?
replicate 1, z-score of dpERK with insulin: -0.44; replicate 2, z-score of dpERK with insulin: 0.04

For CG6465 [DRSC16046], what was measured?
replicate 1, z-score of dpERK with insulin: 0.13; replicate 2, z-score of dpERK with insulin: 0.01

For CCAP [DRSC15674], what does the deposit list?
replicate 1, z-score of dpERK with insulin: -0.17; replicate 2, z-score of dpERK with insulin: 0

How did the screen score HUWE1 [DRSC20089]?
replicate 1, z-score of dpERK with insulin: 0.41; replicate 2, z-score of dpERK with insulin: 0.66

For Cox11 [DRSC22692], how do the results read?
replicate 1, z-score of dpERK with insulin: 1.12; replicate 2, z-score of dpERK with insulin: 0.82

For IntS3 [DRSC21215], how do the results read?
replicate 1, z-score of dpERK with insulin: 0.12; replicate 2, z-score of dpERK with insulin: 1.18

With CG16772 [DRSC02516], how do the results read?
replicate 1, z-score of dpERK with insulin: 0.43; replicate 2, z-score of dpERK with insulin: 0.1

With mRpL45 [DRSC16146], what does the deposit list?
replicate 1, z-score of dpERK with insulin: 0.46; replicate 2, z-score of dpERK with insulin: -0.11

What did the screen give for Cyp9f3 [DRSC16636]?
replicate 1, z-score of dpERK with insulin: -0.13; replicate 2, z-score of dpERK with insulin: 0.41

What did the screen give for mrt [DRSC15484]?
replicate 1, z-score of dpERK with insulin: -0.29; replicate 2, z-score of dpERK with insulin: 0

3 entries already listed, ordered by “replicate 2, z-score of dpERK with insulin”, low to high.
ImpE2 [DRSC08665] — replicate 1, z-score of dpERK with insulin = -0.32; replicate 2, z-score of dpERK with insulin = -0.84
CG33689 [DRSC09424] — replicate 1, z-score of dpERK with insulin = -0.07; replicate 2, z-score of dpERK with insulin = -0.45
CG31337 [DRSC12981] — replicate 1, z-score of dpERK with insulin = -0.17; replicate 2, z-score of dpERK with insulin = -0.34
